Measurements: article PMC3499479
Results are given in words; binding and its absence hold for the method and conditions named. Some entries that bind do so weakly or less than the wild type. Each block holds one binder with its values, some of them ahead of it.

Key:
Assay in all cases: two-hybrid; FBX fused to Gal4-DB, ASK fused to Gal4-AD; yeast mating; selection on SD without Leu, Trp, His, Ade (high strength) or without Leu, Trp, His (low strength); every combination examined twice
[1] = target: T1, F-box (FBX) protein At3g22940 (Arabidopsis thaliana) (UniProt Q9LIK3)
T1 sequence: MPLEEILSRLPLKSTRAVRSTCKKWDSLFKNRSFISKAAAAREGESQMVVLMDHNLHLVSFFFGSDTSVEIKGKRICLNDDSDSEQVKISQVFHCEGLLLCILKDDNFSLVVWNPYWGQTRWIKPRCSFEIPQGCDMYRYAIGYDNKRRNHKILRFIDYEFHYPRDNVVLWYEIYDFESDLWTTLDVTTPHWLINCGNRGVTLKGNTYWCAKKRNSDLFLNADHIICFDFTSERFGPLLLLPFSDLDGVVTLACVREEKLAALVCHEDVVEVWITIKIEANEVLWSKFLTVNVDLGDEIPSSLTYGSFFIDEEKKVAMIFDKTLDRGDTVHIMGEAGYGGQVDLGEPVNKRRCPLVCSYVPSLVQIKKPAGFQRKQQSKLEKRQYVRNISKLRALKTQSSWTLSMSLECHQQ

[2] = target: T2, F-box (FBX) protein At2g22030 (Arabidopsis thaliana) (UniProt Q9SI02)
T2 sequence: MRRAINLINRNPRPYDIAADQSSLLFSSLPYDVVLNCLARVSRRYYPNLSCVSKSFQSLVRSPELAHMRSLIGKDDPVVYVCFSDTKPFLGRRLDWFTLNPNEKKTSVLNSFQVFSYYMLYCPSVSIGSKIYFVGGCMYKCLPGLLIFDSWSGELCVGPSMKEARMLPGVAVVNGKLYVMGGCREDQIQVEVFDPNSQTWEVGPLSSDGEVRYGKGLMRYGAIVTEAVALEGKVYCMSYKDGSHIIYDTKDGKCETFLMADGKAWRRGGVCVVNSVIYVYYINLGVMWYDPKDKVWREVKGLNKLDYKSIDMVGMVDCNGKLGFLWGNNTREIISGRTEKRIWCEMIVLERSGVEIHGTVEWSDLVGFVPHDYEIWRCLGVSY

[3] = target: T3, F-box (FBX) protein At3g04660 (Arabidopsis thaliana) (UniProt Q9SR08)
T3 sequence: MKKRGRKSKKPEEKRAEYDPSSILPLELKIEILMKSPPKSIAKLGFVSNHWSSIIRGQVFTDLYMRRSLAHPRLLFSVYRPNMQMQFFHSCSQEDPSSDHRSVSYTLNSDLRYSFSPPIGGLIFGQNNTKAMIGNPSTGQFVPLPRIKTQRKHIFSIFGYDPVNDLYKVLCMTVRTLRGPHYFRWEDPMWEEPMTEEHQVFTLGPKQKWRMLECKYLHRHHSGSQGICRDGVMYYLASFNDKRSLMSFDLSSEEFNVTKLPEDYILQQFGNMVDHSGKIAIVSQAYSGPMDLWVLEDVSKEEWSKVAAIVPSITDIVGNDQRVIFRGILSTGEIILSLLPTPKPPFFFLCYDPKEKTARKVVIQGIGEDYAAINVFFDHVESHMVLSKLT

[4] = target: T4, F-box (FBX) protein At4g02310 (Arabidopsis thaliana) (UniProt O81414)
T4 sequence: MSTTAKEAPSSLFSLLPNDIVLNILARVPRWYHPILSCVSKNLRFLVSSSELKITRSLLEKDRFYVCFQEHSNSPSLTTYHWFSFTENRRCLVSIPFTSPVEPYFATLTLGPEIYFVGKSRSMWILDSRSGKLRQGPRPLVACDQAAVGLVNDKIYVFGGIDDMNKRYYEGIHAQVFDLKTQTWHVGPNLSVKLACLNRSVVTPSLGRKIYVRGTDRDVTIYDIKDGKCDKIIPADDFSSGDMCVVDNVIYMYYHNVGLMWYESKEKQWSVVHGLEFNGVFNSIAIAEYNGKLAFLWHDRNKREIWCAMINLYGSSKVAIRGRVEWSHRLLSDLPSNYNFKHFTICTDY

[5] = target: T5, F-box (FBX) protein At4g29370 (Arabidopsis thaliana) (UniProt Q9M0E6)
T5 sequence: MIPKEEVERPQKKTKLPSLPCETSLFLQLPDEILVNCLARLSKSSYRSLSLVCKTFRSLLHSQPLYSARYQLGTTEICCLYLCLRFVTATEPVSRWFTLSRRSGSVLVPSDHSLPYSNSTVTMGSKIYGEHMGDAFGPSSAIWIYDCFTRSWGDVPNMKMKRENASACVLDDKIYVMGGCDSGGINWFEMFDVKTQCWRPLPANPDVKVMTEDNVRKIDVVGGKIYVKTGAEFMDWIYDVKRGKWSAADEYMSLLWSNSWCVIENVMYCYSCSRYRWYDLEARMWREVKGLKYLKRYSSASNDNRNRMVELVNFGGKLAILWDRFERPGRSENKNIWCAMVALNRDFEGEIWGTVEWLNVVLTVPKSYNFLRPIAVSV

[6] = target: T6, F-box (FBX) protein At5g21040 (Arabidopsis thaliana) (UniProt Q94AD8)
T6 sequence: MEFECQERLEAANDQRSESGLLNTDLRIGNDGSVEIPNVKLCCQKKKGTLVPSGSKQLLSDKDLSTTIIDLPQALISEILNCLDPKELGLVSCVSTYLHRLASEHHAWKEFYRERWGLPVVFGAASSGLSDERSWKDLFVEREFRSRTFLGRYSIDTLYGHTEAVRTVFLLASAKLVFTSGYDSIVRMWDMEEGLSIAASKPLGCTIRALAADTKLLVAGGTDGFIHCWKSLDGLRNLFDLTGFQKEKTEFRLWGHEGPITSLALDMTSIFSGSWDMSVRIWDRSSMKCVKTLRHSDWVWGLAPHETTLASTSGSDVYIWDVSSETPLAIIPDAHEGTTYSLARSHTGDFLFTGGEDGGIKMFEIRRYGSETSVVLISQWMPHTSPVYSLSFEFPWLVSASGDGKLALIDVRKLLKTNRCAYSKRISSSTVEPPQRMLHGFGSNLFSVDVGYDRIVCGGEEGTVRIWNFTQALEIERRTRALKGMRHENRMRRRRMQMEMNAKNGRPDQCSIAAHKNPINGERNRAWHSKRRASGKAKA

[7] = target: T7, F-box (FBX) protein At2g20380 (Arabidopsis thaliana) (UniProt Q9SK64)
T7 sequence: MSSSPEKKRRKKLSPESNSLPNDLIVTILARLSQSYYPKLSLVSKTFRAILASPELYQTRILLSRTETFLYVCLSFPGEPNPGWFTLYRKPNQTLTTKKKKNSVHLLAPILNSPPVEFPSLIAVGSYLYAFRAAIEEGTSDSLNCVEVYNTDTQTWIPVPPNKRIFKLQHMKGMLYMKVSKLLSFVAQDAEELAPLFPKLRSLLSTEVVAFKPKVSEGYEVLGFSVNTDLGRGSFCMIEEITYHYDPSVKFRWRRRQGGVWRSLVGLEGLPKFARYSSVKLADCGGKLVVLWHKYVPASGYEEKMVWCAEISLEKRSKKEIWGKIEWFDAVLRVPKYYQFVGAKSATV

[8] = target: T8, F-box (FBX) protein At4g10400 (Arabidopsis thaliana) (UniProt Q9SV82)
T8 sequence: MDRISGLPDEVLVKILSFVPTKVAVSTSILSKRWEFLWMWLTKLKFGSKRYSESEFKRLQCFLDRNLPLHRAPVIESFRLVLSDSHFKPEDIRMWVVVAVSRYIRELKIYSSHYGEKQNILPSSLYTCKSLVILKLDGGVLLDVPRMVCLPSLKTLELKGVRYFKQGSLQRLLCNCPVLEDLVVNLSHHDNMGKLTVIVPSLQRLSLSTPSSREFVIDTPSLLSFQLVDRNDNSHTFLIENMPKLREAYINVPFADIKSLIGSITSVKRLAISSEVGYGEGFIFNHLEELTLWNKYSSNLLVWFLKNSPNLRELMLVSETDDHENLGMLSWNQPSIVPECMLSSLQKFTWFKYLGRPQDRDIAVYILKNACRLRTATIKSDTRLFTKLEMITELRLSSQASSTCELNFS

[9] = target: T9, F-box (FBX) protein At4g27050 (Arabidopsis thaliana) (UniProt Q9SZ44)
T9 sequence: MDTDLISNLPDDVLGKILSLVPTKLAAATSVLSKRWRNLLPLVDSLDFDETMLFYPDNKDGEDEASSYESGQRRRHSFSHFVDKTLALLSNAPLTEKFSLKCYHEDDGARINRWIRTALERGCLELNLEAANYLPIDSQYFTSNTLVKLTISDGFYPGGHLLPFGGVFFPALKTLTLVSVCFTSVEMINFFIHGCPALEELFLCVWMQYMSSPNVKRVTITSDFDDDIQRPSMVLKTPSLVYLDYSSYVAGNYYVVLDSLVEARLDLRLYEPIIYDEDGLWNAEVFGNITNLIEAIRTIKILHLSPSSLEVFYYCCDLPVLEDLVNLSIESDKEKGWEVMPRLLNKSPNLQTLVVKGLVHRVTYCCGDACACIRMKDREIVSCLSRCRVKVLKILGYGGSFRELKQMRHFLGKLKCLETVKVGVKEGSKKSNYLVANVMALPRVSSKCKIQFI

[10] = target: T10, F-box (FBX) protein At5g53840 (Arabidopsis thaliana) (UniProt Q9FGQ3)
T10 sequence: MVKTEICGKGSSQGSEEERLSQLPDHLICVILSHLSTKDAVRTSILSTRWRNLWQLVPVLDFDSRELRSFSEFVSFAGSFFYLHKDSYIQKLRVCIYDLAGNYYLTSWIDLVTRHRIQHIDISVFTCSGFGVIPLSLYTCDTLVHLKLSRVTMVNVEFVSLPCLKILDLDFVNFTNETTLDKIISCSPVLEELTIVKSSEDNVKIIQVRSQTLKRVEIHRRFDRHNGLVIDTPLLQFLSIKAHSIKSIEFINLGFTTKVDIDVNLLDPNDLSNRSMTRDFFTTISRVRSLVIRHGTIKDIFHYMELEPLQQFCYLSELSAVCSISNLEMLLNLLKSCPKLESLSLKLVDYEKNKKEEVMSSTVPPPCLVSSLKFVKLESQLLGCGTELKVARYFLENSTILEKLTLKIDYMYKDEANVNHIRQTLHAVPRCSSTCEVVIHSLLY

binding [1]: binds
B1: Arabidopsis SKP1-LIKE 19 (ASK19) (protein, UniProt O81058 1-200)
chain: MSSKKIVLTSSDGESFKVEEVVARKLQIVGHIIEDDCATNKIPIPNVTGEILAKVIEYCKKHVEDDDDVVETHESSTKGDKTVEEAKKKPDDVAVPESTEGDDEAEDKKEKLNEWDAKFMKDFDIKTIFDIILAANYLNVQGLFDLCSKTIADYIKDMTPEEVRELFNIENDFTPEEEEAIRNENAWTFEQDGKQQVPKP

binding [2]: binds
binding [3]: binds
binding [4]: binds
binding [5]: binds
binding [6]: binds
B2: Arabidopsis SKP1-LIKE 13 (ASK13) (protein, UniProt Q9M1X5 1-154)
chain: MSKMVMLLSSDGESFQVEEAVAVQSQTIAHMIEDDCVANGVPIANVTGVILSKVIEYCKKHVVSDSPTEESKDELKKWDAEFMKALEQSSTLFDVMLAANYLNIKDLLDLGCQTVADMITGKKPDEIRALLGIENDFTPEEEEEIRKENQWAFE

binding [7]: binds
binding [8]: binds
binding [9]: binds
binding [10]: binds
B3: Arabidopsis SKP1-LIKE 3 (ASK3) (protein, UniProt Q9SL93 1-163)
chain: MAETKKMIILKSSDGESFEVEEAVAVESQTIKHMIEDDCVDNGIPLPNVTGAILAKVIEYCKKHVEAAAEAGGDKDFYGSTENHELKTWDNDFVKVDHPTLFDLLRAANYLNISGLLDLTCKAVADQMRGKTPAQMREHFNIKNDYTPEEEAEVRNENRWAFE
